According to PMC12703733 (Journal of Medicinal Chemistry, 2025):
Strings that start with PEPTIDE1 are HELM notation: dots part the residues, brackets hold end groups and non-standard residues. Bridge positions count the residues as written; N and C are the ends. Square brackets hold non-standard residues; d marks the D form. Pro(cis-4-guanidino) = NC(N)=N[C@@H]1CN[C@H](C(=O)O)C1; Phe(4-guanidino) = N=C(N)Nc1ccc(C[C@H](N)C(=O)O)cc1

Experiment: general procedure: Fmoc solid-phase peptide synthesis; Fmoc-Leu-Rink Amide Resin (0.64 mmol/g, 100–200 mesh); COMU, OxymaPure, DIEA
Settings: whole synthesis, 220 nm, scale of the general procedure 0.25 mmol

Question: With “PEPTIDE1{F.V.P.W.F.K.K.F.[dL].[dK].R.I.L.[am]}|CHEM1{[CNH]}$PEPTIDE1,CHEM1,6:R3-1:R1|PEPTIDE1,CHEM1,10:R3-1:R2$$$V2.0” as the substance, how does the “final HPLC purity” value read?
Answer: The value was >98%.

Question: For “H-FV[Pro(cis-4-guanidino)]WFKKF[dL][dE]RIL-NH2 (lactam 6-10; SMILES CC[C@H](C)[C@H](NC(=O)[C@H](CCCNC(=N)N)NC(=O)[C@H]1CCC(=O)NCCCC[C@H](NC(=O)[C@H](Cc2ccccc2)NC(=O)[C@H](Cc2c[nH]c3ccccc23)NC(=O)[C@@H]2C[C@H](NC(=N)N)CN2C(=O)[C@@H](NC(=O)[C@@H](N)Cc2ccccc2)C(C)C)C(=O)N[C@@H](CCCCN)C(=O)N[C@@H](Cc2ccccc2)C(=O)N[C@H](CC(C)C)C(=O)N1)C(=O)N[C@@H](CC(C)C)C(N)=O)”, which “final HPLC purity” value is on record?
Answer: The value was >95%.

Question: Which “final HPLC purity” value does the source give for “H-[Phe(4-guanidino)]VPWFKKF[dL][dE]RIL-NH2 (lactam 6-10; SMILES CC[C@H](C)[C@H](NC(=O)[C@H](CCCNC(=N)N)NC(=O)[C@H]1CCC(=O)NCCCC[C@H](NC(=O)[C@H](Cc2ccccc2)NC(=O)[C@H](Cc2c[nH]c3ccccc23)NC(=O)[C@@H]2CCCN2C(=O)[C@@H](NC(=O)[C@@H](N)Cc2ccc(NC(=N)N)cc2)C(C)C)C(=O)N[C@@H](CCCCN)C(=O)N[C@@H](Cc2ccccc2)C(=O)N[C@H](CC(C)C)C(=O)N1)C(=O)N[C@@H](CC(C)C)C(N)=O)” here?
Answer: Its value is >96%.
